# According to PubChem BioAssay AID493014 (National Center for Advancing Translational Sciences (NCATS), 2011):
# Screen size: about 340,000 compounds; about 170 (0.05%) were called active. Inconclusive results, whose numbers are uncertain, are shown with a selection of clear calls. Calls follow the shape of the dose curve; as a rule, active = well fitted inhibition curve with a large enough effect in the signal ratio, with a control signal flat (not every such curve was filed as active); inconclusive = small, poorly fitted or top-dose-only effect, or effect the other way, or a change in a side signal; inactive = flat fitted curve, though single readings scatter; the % refers to the signal ratio. Potencies beside an inconclusive call are fits to weak or partial responses and may not hold up.
# Assay: qHTS Assay to Find Inhibitors of Chronic Active B-Cell Receptor Signaling;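 as to activity change, negative = inhibition: plate controls were basal doxycycline-induced cells for no effect and cells given 10 µM MG132 for full effect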
# Details: ABC-DLBCL IkBa-CBG/CBR reporter, luminescence ratio (green luciferase fused to IkBa over red control in TMD8 lymphoma cells), 4 h; activity change, negative = inhibition: at 46.1 µM (top of the series)
# In short: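 Compounds up to 46 uM were incubated four hours with TMD8 cells whose green CBG68 luciferase is fused to IkappaBalpha; red CBR luminescence normalised the signal, and concentration-effect curves were fitted to fusion, red and ratio data.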
# Potency is read from the fitted curve at half-maximal effect.
SMILES,"activity change, negative = inhibition",Potency
CCCCn1cnc2c([nH]c3ccccc32)c1=O,inactive,–
O=c1[nH]ncc(N2CCCCCC2)c1Cl,inactive,–
CN(CC(=O)NCc1ccccc1Cl)S(=O)(=O)c1ccc2c(c1)n(C)c(=O)c(=O)n2C,inactive,–
C=CCOc1ccc(CNn2cn[nH]c2=S)cc1OC,–,"inconclusive: 16.4 µM [falling, partial curve]"
C/C(=N\Nc1ccc([N+](=O)[O-])cc1)c1ccco1,inconclusive: 2.07%,–
O=C(CSc1nc2ccccc2c(=O)n1NC(=O)Cc1ccccc1)NCCc1ccccc1,inconclusive: 0.751%,–
CCc1sc(NC(=O)CN2CCOCC2)nc1-c1ccccc1,inconclusive: 12.8%,–
CC(OC(=O)c1cccc(-n2cnnn2)c1)C(=O)NCc1ccccc1 (stereo not drawn),inactive,–
Cc1ccc(C2NC(C(=O)O)CS2)cc1 (stereo not drawn),inconclusive: 10.4%,–
CCN(CC)CCOc1cc2c(nn1)Oc1ccccc1N2C,inconclusive: 5.16%,–
Cc1ccc(C(=O)NC2CCCc3c2cnn3-c2ccc(F)cc2F)cn1 (stereo not drawn),inactive,–
COCC(=O)N(Cc1ccc(OC)cc1)Cc1nc2ccccc2c(=O)[nH]1,inconclusive: -9.74%,–
CNC(=O)c1c[nH]c2ccc(S(=O)(=O)Nc3cccc(SC)c3)cc2c1=O,inconclusive: 3.94%,–
COc1ccc(C(=O)c2ccc(CC(=O)O)s2)cc1,–,"inconclusive: 15.8 µM [rising, partial curve, poor fit]"
O=C(Nc1nc2c(s1)CCCC2)c1cccnc1,–,"inconclusive: 16.4 µM [falling, single point]"
CCCN1C(=O)/C(=C\C=C2\N(CC)c3ccccc3C2(C)C)SC1=S,inconclusive: 22.5%,–
O=C(Cc1ccsc1)Nc1ccc(Cl)cc1Cl,inconclusive: 9.26%,–
C/C(=N\NC(=O)c1cc2c(s1)CCC(C)C2)c1ccc[nH]1 (stereo not drawn),inconclusive: -2%,–
CCN(CC)C(=O)[C@H]1C[C@H](CC(=O)NCc2cccc(C(F)(F)F)c2)C(=O)N2CCc3c([nH]c4cc(-c5ccco5)ccc34)[C@]12C,–,"inconclusive: 18.4 µM [cytotoxic, single point]"
Cc1ccc2[nH]c3c(=O)n(CC(=O)NCc4ccco4)ncc3c2c1,inconclusive: 0.826%,–
O=c1[nH]c(C2CCN(S(=O)(=O)c3ccccc3C(F)(F)F)CC2)nc2c1nnn2Cc1ccccc1,inconclusive: -19.5%,–
O=C(CCN1C(=O)c2ccccc2S1(=O)=O)Nc1ccc2c(c1)OCCO2,inconclusive: -12%,–
O=C(Nc1ccc2c(c1)OCO2)c1ccc(Br)o1,–,"inconclusive: 20.6 µM [falling, partial curve]"

# Look-ups from the results shown:
# CCCN1C(=O)/C(=C\C=C2\N(CC)c3ccccc3C2(C)C)SC1=S | activity change, negative = inhibition: inconclusive: 22.5%
# CCN(CC)CCOc1cc2c(nn1)Oc1ccccc1N2C | activity change, negative = inhibition: inconclusive: 5.16%
